{
  "source": "paper PMC5433425",
  "about": "(PeerJ, 2017)",
  "system": "E. coli AG100A",
  "test": "EtBr efflux by real-time fluorometry",
  "conditions": "20 µM",
  "note": "Further values from the same series stand in other lists. Peptide text beside a SMILES is read from it. * marks the point of attachment. βNA = c1ccc2cc(N*)ccc2c1",
  "data": [
    {"molecule": "NC(N)=NCCC[C@H](NC(=O)[C@@H](N)Cc1ccccc1)C(=O)Nc1ccc2ccccc2c1", "note": "[PAβN] (H-Phe-Arg-βNA)", "values": [
      {"measurement": "Fluorescence raw data, Channel Cycling A.530/585hp", "setting": "cycle 20, without glucose", "value": 1.517},
      {"measurement": "Fluorescence raw data, Channel Cycling A.530/585hp", "setting": "cycle 21, + glucose", "value": 1.561},
      {"measurement": "Fluorescence raw data, Channel Cycling A.530/585hp", "setting": "cycle 21, without glucose", "value": 1.514},
      {"measurement": "Fluorescence raw data, Channel Cycling A.530/585hp", "setting": "cycle 22, + glucose", "value": 1.561},
      {"measurement": "Fluorescence raw data, Channel Cycling A.530/585hp", "setting": "cycle 22, without glucose", "value": 1.514},
      {"measurement": "Fluorescence raw data, Channel Cycling A.530/585hp", "setting": "cycle 23, + glucose", "value": 1.562},
      {"measurement": "Fluorescence raw data, Channel Cycling A.530/585hp", "setting": "cycle 23, without glucose", "value": 1.491},
      {"measurement": "Fluorescence raw data, Channel Cycling A.530/585hp", "setting": "cycle 24, + glucose", "value": 1.571},
      {"measurement": "Fluorescence raw data, Channel Cycling A.530/585hp", "setting": "cycle 24, without glucose", "value": 1.506},
      {"measurement": "Fluorescence raw data, Channel Cycling A.530/585hp", "setting": "cycle 25, + glucose", "value": 1.524},
      {"measurement": "Fluorescence raw data, Channel Cycling A.530/585hp", "setting": "cycle 25, without glucose", "value": 1.503},
      {"measurement": "Fluorescence raw data, Channel Cycling A.530/585hp", "setting": "cycle 26, + glucose", "value": 1.531},
      {"measurement": "Fluorescence raw data, Channel Cycling A.530/585hp", "setting": "cycle 26, without glucose", "value": 1.508},
      {"measurement": "Fluorescence raw data, Channel Cycling A.530/585hp", "setting": "cycle 27, + glucose", "value": 1.544},
      {"measurement": "Fluorescence raw data, Channel Cycling A.530/585hp", "setting": "cycle 27, without glucose", "value": 1.48},
      {"measurement": "Fluorescence raw data, Channel Cycling A.530/585hp", "setting": "cycle 28, + glucose", "value": 1.487},
      {"measurement": "Fluorescence raw data, Channel Cycling A.530/585hp", "setting": "cycle 28, without glucose", "value": 1.504},
      {"measurement": "Fluorescence raw data, Channel Cycling A.530/585hp", "setting": "cycle 29, + glucose", "value": 1.5009},
      {"measurement": "Fluorescence raw data, Channel Cycling A.530/585hp", "setting": "cycle 29, without glucose", "value": 1.524},
      {"measurement": "Fluorescence raw data, Channel Cycling A.530/585hp", "setting": "cycle 30, + glucose", "value": 1.526},
      {"measurement": "Fluorescence raw data, Channel Cycling A.530/585hp", "setting": "cycle 30, without glucose", "value": 1.529},
      {"measurement": "Fluorescence raw data, Channel Cycling A.530/585hp", "setting": "cycle 31, + glucose", "value": 1.525},
      {"measurement": "Fluorescence raw data, Channel Cycling A.530/585hp", "setting": "cycle 31, without glucose", "value": 1.514},
      {"measurement": "Fluorescence raw data, Channel Cycling A.530/585hp", "setting": "cycle 32, + glucose", "value": 1.457},
      {"measurement": "Fluorescence raw data, Channel Cycling A.530/585hp", "setting": "cycle 32, without glucose", "value": 1.47},
      {"measurement": "Fluorescence raw data, Channel Cycling A.530/585hp", "setting": "cycle 33, + glucose", "value": 1.471},
      {"measurement": "Fluorescence raw data, Channel Cycling A.530/585hp", "setting": "cycle 33, without glucose", "value": 1.433},
      {"measurement": "Fluorescence raw data, Channel Cycling A.530/585hp", "setting": "cycle 34, + glucose", "value": 1.426},
      {"measurement": "Fluorescence raw data, Channel Cycling A.530/585hp", "setting": "cycle 34, without glucose", "value": 1.434},
      {"measurement": "Fluorescence raw data, Channel Cycling A.530/585hp", "setting": "cycle 35, + glucose", "value": 1.471},
      {"measurement": "Fluorescence raw data, Channel Cycling A.530/585hp", "setting": "cycle 35, without glucose", "value": 1.47},
      {"measurement": "Fluorescence raw data, Channel Cycling A.530/585hp", "setting": "cycle 36, + glucose", "value": 1.462},
      {"measurement": "Fluorescence raw data, Channel Cycling A.530/585hp", "setting": "cycle 36, without glucose", "value": 1.472},
      {"measurement": "Fluorescence raw data, Channel Cycling A.530/585hp", "setting": "cycle 37, + glucose", "value": 1.422},
      {"measurement": "Fluorescence raw data, Channel Cycling A.530/585hp", "setting": "cycle 37, without glucose", "value": 1.445},
      {"measurement": "Fluorescence raw data, Channel Cycling A.530/585hp", "setting": "cycle 38, + glucose", "value": 1.451},
      {"measurement": "Fluorescence raw data, Channel Cycling A.530/585hp", "setting": "cycle 38, without glucose", "value": 1.476},
      {"measurement": "Fluorescence raw data, Channel Cycling A.530/585hp", "setting": "cycle 39, + glucose", "value": 1.419},
      {"measurement": "Fluorescence raw data, Channel Cycling A.530/585hp", "setting": "cycle 39, without glucose", "value": 1.481},
      {"measurement": "Fluorescence raw data, Channel Cycling A.530/585hp", "setting": "cycle 40, + glucose", "value": 1.457},
      {"measurement": "Fluorescence raw data, Channel Cycling A.530/585hp", "setting": "cycle 40, without glucose", "value": 1.478},
      {"measurement": "Fluorescence raw data, Channel Cycling A.530/585hp", "setting": "cycle 41, + glucose", "value": 1.372},
      {"measurement": "Fluorescence raw data, Channel Cycling A.530/585hp", "setting": "cycle 41, without glucose", "value": 1.475},
      {"measurement": "Fluorescence raw data, Channel Cycling A.530/585hp", "setting": "cycle 42, + glucose", "value": 1.37},
      {"measurement": "Fluorescence raw data, Channel Cycling A.530/585hp", "setting": "cycle 42, without glucose", "value": 1.475},
      {"measurement": "Fluorescence raw data, Channel Cycling A.530/585hp", "setting": "cycle 43, + glucose", "value": 1.3901},
      {"measurement": "Fluorescence raw data, Channel Cycling A.530/585hp", "setting": "cycle 43, without glucose", "value": 1.4822},
      {"measurement": "Fluorescence raw data, Channel Cycling A.530/585hp", "setting": "cycle 44, + glucose", "value": 1.383},
      {"measurement": "Fluorescence raw data, Channel Cycling A.530/585hp", "setting": "cycle 44, without glucose", "value": 1.466},
      {"measurement": "Fluorescence raw data, Channel Cycling A.530/585hp", "setting": "cycle 45, + glucose", "value": 1.36},
      {"measurement": "Fluorescence raw data, Channel Cycling A.530/585hp", "setting": "cycle 45, without glucose", "value": 1.436},
      {"measurement": "Fluorescence raw data, Channel Cycling A.530/585hp", "setting": "cycle 46, + glucose", "value": 1.382},
      {"measurement": "Fluorescence raw data, Channel Cycling A.530/585hp", "setting": "cycle 46, without glucose", "value": 1.443},
      {"measurement": "Fluorescence raw data, Channel Cycling A.530/585hp", "setting": "cycle 47, + glucose", "value": 1.378},
      {"measurement": "Fluorescence raw data, Channel Cycling A.530/585hp", "setting": "cycle 47, without glucose", "value": 1.441},
      {"measurement": "Fluorescence raw data, Channel Cycling A.530/585hp", "setting": "cycle 48, + glucose", "value": 1.366},
      {"measurement": "Fluorescence raw data, Channel Cycling A.530/585hp", "setting": "cycle 48, without glucose", "value": 1.459},
      {"measurement": "Fluorescence raw data, Channel Cycling A.530/585hp", "setting": "cycle 49, + glucose", "value": 1.364},
      {"measurement": "Fluorescence raw data, Channel Cycling A.530/585hp", "setting": "cycle 49, without glucose", "value": 1.415},
      {"measurement": "Fluorescence raw data, Channel Cycling A.530/585hp", "setting": "cycle 50, + glucose", "value": 1.345},
      {"measurement": "Fluorescence raw data, Channel Cycling A.530/585hp", "setting": "cycle 50, without glucose", "value": 1.468},
      {"measurement": "Fluorescence raw data, Channel Cycling A.530/585hp", "setting": "cycle 51, + glucose", "value": 1.365},
      {"measurement": "Fluorescence raw data, Channel Cycling A.530/585hp", "setting": "cycle 51, without glucose", "value": 1.421},
      {"measurement": "Fluorescence raw data, Channel Cycling A.530/585hp", "setting": "cycle 52, + glucose", "value": 1.336},
      {"measurement": "Fluorescence raw data, Channel Cycling A.530/585hp", "setting": "cycle 52, without glucose", "value": 1.473},
      {"measurement": "Fluorescence raw data, Channel Cycling A.530/585hp", "setting": "cycle 53, + glucose", "value": 1.34},
      {"measurement": "Fluorescence raw data, Channel Cycling A.530/585hp", "setting": "cycle 53, without glucose", "value": 1.466},
      {"measurement": "Fluorescence raw data, Channel Cycling A.530/585hp", "setting": "cycle 54, + glucose", "value": 1.309},
      {"measurement": "Fluorescence raw data, Channel Cycling A.530/585hp", "setting": "cycle 54, without glucose", "value": 1.466},
      {"measurement": "Fluorescence raw data, Channel Cycling A.530/585hp", "setting": "cycle 55, + glucose", "value": 1.3623},
      {"measurement": "Fluorescence raw data, Channel Cycling A.530/585hp", "setting": "cycle 55, without glucose", "value": 1.416},
      {"measurement": "Fluorescence raw data, Channel Cycling A.530/585hp", "setting": "cycle 56, + glucose", "value": 1.331},
      {"measurement": "Fluorescence raw data, Channel Cycling A.530/585hp", "setting": "cycle 56, without glucose", "value": 1.427},
      {"measurement": "Fluorescence raw data, Channel Cycling A.530/585hp", "setting": "cycle 57, + glucose", "value": 1.368},
      {"measurement": "Fluorescence raw data, Channel Cycling A.530/585hp", "setting": "cycle 57, without glucose", "value": 1.423},
      {"measurement": "Fluorescence raw data, Channel Cycling A.530/585hp", "setting": "cycle 58, + glucose", "value": 1.332},
      {"measurement": "Fluorescence raw data, Channel Cycling A.530/585hp", "setting": "cycle 58, without glucose", "value": 1.416},
      {"measurement": "Fluorescence raw data, Channel Cycling A.530/585hp", "setting": "cycle 59, + glucose", "value": 1.363},
      {"measurement": "Fluorescence raw data, Channel Cycling A.530/585hp", "setting": "cycle 59, without glucose", "value": 1.442},
      {"measurement": "Fluorescence raw data, Channel Cycling A.530/585hp", "setting": "cycle 60, + glucose", "value": 1.351},
      {"measurement": "Fluorescence raw data, Channel Cycling A.530/585hp", "setting": "cycle 60, without glucose", "value": 1.452},
      {"measurement": "Fluorescence raw data, Channel Cycling A.530/585hp", "setting": "cycle 61, + glucose", "value": 1.355},
      {"measurement": "Fluorescence raw data, Channel Cycling A.530/585hp", "setting": "cycle 61, without glucose", "value": 1.419}
    ]}
  ]
}
